Reference: the supplement of paper PMC10849652
Some of the results follow.

The chains behind the UniProt entries cited, without tags or fusion partners. Where a name states a change or a piece, a line headed by the entry shows the natural chain unless it says otherwise.
UniProt Q0VD83: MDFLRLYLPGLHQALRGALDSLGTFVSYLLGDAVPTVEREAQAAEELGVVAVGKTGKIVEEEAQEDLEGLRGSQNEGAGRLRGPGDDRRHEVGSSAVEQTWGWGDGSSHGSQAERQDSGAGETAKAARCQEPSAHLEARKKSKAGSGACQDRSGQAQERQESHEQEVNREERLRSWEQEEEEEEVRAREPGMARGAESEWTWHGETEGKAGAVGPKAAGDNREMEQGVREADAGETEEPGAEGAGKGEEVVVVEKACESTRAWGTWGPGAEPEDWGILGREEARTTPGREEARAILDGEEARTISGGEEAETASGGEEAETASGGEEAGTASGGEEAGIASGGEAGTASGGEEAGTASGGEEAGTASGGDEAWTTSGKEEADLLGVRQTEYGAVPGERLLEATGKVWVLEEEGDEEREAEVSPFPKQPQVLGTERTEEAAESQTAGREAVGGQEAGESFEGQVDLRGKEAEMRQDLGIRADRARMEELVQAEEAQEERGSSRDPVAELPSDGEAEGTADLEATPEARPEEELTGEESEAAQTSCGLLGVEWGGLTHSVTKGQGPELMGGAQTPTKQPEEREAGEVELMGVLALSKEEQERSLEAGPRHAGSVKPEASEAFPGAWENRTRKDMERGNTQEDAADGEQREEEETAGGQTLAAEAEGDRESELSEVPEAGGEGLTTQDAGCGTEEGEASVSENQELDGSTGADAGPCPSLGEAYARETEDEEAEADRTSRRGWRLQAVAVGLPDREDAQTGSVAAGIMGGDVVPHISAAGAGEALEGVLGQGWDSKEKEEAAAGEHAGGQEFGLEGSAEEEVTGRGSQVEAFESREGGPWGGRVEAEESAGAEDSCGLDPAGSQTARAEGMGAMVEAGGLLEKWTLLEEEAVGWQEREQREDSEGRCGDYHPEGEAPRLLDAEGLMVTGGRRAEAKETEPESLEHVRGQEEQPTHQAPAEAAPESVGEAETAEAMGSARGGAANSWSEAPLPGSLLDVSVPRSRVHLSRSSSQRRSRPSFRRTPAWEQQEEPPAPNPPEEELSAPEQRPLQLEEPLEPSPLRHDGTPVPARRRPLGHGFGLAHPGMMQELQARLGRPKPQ
UniProt Q15052: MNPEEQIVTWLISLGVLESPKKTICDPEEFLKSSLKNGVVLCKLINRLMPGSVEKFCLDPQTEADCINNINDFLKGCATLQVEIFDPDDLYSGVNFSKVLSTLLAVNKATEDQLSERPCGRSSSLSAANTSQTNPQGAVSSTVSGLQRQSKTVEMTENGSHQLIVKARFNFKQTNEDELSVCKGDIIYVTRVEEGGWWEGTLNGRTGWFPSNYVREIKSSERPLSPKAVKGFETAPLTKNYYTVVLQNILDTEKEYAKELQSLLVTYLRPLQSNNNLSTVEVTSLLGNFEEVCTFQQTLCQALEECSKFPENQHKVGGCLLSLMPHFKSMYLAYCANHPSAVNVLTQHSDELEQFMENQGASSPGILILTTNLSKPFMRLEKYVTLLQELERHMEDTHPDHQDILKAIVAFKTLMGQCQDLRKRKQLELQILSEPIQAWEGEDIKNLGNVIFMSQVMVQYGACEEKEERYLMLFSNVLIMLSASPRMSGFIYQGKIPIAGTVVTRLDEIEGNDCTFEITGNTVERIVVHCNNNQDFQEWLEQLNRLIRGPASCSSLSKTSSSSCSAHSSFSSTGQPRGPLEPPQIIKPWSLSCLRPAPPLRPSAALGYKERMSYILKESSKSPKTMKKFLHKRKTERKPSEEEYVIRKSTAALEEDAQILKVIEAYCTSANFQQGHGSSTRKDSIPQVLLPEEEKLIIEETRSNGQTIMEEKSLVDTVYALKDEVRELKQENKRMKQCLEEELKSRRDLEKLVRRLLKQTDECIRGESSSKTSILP
UniProt P40616: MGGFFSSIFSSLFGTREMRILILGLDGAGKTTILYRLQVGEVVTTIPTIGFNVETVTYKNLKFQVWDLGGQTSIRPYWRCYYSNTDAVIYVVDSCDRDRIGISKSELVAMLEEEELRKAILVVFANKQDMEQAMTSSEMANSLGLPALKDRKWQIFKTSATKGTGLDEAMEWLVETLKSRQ
UniProt Q68EM7: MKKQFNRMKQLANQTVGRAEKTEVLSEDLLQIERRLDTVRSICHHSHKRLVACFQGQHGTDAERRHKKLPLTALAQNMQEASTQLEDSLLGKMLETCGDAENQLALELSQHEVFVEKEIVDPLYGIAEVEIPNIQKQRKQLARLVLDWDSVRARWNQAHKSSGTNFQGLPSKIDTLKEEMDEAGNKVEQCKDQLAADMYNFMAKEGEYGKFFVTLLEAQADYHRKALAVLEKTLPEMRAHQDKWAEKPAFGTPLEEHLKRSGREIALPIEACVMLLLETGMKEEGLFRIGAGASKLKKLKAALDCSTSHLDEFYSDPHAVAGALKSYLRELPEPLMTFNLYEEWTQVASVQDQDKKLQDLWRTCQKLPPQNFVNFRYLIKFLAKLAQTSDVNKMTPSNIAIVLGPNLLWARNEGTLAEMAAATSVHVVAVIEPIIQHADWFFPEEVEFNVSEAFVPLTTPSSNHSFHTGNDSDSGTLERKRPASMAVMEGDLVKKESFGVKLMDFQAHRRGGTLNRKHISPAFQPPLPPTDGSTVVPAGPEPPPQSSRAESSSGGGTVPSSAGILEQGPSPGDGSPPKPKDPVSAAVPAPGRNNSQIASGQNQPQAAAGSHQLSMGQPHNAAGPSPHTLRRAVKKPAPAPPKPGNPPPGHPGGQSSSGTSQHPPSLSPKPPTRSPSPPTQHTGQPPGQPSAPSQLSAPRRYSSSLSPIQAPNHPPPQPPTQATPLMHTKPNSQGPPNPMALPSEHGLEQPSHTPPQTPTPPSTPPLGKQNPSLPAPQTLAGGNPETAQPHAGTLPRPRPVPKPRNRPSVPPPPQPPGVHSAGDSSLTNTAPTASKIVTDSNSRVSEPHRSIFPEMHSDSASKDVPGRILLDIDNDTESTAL
UniProt P36404: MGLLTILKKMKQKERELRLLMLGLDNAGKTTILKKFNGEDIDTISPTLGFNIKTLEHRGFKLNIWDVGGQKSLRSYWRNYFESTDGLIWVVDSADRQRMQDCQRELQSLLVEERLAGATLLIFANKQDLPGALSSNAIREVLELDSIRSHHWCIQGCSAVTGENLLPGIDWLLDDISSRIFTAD
UniProt Q9Y2Y0: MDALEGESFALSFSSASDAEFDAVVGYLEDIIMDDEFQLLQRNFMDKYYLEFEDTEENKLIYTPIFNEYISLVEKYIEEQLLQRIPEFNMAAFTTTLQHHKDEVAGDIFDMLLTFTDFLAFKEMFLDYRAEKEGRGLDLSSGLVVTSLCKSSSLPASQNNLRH
UniProt Q13795: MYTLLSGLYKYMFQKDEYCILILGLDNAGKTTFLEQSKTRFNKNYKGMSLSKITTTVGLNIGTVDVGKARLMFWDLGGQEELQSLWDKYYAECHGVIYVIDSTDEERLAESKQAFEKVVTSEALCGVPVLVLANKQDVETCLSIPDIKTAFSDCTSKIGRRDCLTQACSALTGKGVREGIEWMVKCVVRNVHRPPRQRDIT
UniProt Q5T5U3: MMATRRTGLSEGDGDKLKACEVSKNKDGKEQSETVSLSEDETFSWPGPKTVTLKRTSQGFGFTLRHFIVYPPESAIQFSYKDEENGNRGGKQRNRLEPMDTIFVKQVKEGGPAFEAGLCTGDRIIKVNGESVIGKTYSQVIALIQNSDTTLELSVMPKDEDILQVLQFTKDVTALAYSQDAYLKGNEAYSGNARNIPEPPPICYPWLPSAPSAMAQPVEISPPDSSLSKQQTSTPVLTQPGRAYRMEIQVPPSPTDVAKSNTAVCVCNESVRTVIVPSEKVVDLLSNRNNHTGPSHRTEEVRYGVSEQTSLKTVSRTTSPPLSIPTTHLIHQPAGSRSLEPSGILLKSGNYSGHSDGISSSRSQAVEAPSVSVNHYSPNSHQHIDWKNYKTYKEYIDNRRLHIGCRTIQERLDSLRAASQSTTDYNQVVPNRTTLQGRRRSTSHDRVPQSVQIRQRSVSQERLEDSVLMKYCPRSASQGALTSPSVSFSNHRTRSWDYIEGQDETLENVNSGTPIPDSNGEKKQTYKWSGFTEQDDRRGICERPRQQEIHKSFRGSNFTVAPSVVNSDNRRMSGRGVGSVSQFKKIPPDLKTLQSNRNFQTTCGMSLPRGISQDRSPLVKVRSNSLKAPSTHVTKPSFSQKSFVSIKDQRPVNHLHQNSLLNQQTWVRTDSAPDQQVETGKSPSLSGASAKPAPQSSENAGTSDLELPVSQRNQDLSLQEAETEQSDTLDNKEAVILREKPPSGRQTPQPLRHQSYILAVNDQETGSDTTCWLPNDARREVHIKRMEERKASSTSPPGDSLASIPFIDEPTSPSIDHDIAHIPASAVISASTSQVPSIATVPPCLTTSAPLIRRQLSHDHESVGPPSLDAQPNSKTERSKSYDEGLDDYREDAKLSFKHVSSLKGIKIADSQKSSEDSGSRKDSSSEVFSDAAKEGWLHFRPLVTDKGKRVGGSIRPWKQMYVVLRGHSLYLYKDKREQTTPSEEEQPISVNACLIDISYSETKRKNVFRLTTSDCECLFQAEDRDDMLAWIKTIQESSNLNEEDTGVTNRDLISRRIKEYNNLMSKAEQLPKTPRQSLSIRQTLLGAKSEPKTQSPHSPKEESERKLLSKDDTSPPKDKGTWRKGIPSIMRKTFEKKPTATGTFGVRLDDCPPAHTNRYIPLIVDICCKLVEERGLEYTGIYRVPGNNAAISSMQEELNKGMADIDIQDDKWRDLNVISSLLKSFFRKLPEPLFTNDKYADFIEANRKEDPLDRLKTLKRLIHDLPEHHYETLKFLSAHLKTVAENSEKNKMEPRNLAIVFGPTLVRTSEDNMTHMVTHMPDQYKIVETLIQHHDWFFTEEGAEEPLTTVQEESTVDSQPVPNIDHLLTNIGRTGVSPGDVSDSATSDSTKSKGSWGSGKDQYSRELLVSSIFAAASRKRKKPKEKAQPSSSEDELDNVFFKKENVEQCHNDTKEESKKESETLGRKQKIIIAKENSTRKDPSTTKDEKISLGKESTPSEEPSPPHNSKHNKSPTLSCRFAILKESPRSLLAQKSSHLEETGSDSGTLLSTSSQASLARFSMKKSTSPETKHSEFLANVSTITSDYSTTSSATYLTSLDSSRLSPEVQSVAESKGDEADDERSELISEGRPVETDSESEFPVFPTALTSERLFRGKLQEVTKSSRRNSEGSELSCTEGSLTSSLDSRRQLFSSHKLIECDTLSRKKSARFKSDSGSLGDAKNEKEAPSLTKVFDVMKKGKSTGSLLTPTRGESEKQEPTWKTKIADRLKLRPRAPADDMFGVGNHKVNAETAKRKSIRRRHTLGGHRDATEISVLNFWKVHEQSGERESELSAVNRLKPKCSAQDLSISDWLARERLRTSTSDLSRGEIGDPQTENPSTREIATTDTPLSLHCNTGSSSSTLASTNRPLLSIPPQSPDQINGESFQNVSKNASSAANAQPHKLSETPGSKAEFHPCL
UniProt P32121, whole entry, looked up: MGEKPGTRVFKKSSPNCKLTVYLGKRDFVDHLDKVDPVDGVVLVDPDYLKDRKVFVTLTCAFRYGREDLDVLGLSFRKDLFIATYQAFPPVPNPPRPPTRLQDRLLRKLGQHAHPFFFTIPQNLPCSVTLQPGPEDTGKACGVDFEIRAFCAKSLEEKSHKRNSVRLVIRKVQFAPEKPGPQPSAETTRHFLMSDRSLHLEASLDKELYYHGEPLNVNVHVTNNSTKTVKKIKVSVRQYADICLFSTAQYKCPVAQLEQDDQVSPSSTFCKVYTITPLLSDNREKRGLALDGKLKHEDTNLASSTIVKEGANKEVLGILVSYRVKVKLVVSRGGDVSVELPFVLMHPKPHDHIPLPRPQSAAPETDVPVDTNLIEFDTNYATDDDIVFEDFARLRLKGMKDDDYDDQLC
UniProt Q9NRW3: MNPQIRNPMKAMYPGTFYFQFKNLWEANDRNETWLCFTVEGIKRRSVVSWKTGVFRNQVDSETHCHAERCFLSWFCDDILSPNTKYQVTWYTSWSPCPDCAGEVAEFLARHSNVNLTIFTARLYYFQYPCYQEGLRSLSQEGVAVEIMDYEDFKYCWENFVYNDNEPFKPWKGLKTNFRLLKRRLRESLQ
UniProt P15289: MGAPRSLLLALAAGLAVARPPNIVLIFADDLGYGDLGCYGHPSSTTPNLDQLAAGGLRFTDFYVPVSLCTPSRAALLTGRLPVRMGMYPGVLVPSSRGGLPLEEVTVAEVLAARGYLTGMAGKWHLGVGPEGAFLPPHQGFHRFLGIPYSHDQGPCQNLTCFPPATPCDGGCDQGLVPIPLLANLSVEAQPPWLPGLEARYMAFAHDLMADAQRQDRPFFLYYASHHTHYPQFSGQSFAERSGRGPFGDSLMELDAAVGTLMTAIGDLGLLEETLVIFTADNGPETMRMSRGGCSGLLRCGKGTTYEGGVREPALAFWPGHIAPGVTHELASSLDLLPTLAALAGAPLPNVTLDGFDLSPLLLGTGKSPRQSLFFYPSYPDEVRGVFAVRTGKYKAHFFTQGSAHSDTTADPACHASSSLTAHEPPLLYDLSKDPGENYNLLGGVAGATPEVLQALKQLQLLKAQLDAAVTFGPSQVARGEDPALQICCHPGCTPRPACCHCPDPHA

Columns and labels:
Test in all cases: log2 fold change, soluble protein after heating vs DMSO (PISA); higher = thermal stabilisation; K562 lysate, 10 uM; active = over 0.2 and 3.5 SD of the protein, either way, in both replicates (recomputed)
[1] = compound: C#Cc1cccc(Nc2ncnc3cc(OCCOC)c(OCCOC)cc23)c1 [erlotinib]
In short: (§1)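 Quantification was by TMTpro 16plex LC-MS/MS with equalised channel sums, applied to the supernatant after 21,000xg for 90 min. Samples were crude K562 extract at 1 mg/mL protein in PBS pH 7.4 with 1 mM MgCl2, treated with 10 μM compound for 30 min, heated for 3 min across 48°C-58°C, pooled and brought to 0.5% NP-40 at 4°C. Values are log-two fold changes in thermal stability relative to solvent controls, from duplicates.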

[2] = compound: C/C(=N\NC(=O)C1=CC(=CC=C1)S(=O)(=O)N2CCOCC2)/C3=C(C=CC(=C3)Cl)O
In short: as §1

[3] = compound: C1=CC(=CC=C1C2=NC3=C(N2)C=C(C=C3)C(=O)N)OC4=CC=C(C=C4)Cl
In short: as §1

[4] = compound: C1=CC2=C(C=CC(=C2)/C=C\3/C(=O)NC(=NCC4=CC=CS4)S3)N=C1
In short: as §1

[5] = compound: C1=CC2=NC=CN=C2C=C1/C=C/3\C(=O)NC(=O)S3
In short: as §1

[6] = compound: C1=CC=C(C=C1)C2=NC(=C(N2)C3=CC=NC=C3)C4=CC(=C(C=C4)Cl)O
In short: as §1

[7] = compound: C1=CC=C2C(=C1)C3=NNC4=CC=CC(=C43)C2=O
In short: as §1

[8] = compound: C1CCN(C1)C(=O)NC2=CC=CC(=C2)NC3=NC=C(C(=N3)NCCC4=CN=CN4)Br
In short: as §1

[9] = compound: C1CN(CCC1(CC2=CC=C(C=C2)Cl)N)C3=NC=NC4=C3C=CN4
In short: as §1

[10] = compound: C1COCCN1CCN2C3=CC=CC=C3N=C2NC(=O)C4=CC(=CC=C4)[N+](=O)[O-] [IRAK-1-4 Inhibitor I]
In short: as §1

[11] = compound: C=CC(=O)N1CCC[C@@H](n2nc(-c3ccc(Oc4ccccc4)cc3)c3c(N)ncnc32)C1 [ibrutinib]
In short: as §1

[12] = compound: CC(=O)c1cnc2ccc(-c3cc(Cl)c(O)c(Cl)c3)nc2c1N[C@H]1CC[C@H](CN(C)C)CC1
In short: as §1

[13] = compound: CC(C)(C)Cn1c(N)nc2ccc(-c3[nH]c(C(C)(C)C)nc3-c3ccc(F)cc3)nc21 [ralimetinib]
In short: as §1

[14] = compound: CC(C)(O)CC(=O)NCCn1ccc2ncnc(Nc3ccc(Oc4cccc(C(F)(F)F)c4)c(Cl)c3)c21
In short: as §1

[15] = compound: CC(C)C1=C2N=C(C=C(N2N=C1)NCC3=CC=CC=C3)NCCCCCCN
In short: as §1

[16] = compound: CC1=C(C(CC(=O)N1)C2=CC=C(C=C2)C(F)(F)F)C(=O)NC3=C(C=C4C(=C3)C=NN4)F
In short: as §1

[17] = compound: CC1=C(C2=C(C=C1)C(=O)C3=CC=CC=C3N2CCCN)C
In short: as §1

[18] = compound: CC1=C(C=C(C=C1)NC(=O)C2=CC(=CC=C2)C(C)(C)C#N)NC3=CC4=C(C=C3)N=CN(C4=O)C
In short: as §1

[19] = compound: CC1=C(C=C(C=C1)NC(=O)C2=CC(=CC=C2)N(C)C)NC(=O)C3=CC=C(C=C3)O
In short: as §1

[20] = compound: CC1=CC=C(C=C1)SC2=C3C=C(SC3=CN=C2)C(=O)N
In short: as §1

Measured: log2 fold change

APOBR (UniProt Q0VD83)
inactive: [1] -0.017 | [2] 0.034 | [3] 0 | [4] -0.02 | [5] 0.014 | [6] 0.011 | [7] -0.004 | [8] 0.012 | [9] -0.012 | [10] 0.053 | [11] 0.056 | [12] -0.06 | [13] 0.009 | [14] -0.058 | [15] -0.034 | [16] 0.004 | [17] -0.037 | [18] -0.028 | [19] 0 | [20] -0.077

ARHGEF6 (UniProt Q15052)
inactive: [1] -0.016 | [2] 0.012 | [3] -0.056 | [4] 0.005 | [5] -0.095 | [6] 0.02 | [7] 0.016 | [8] -0.029 | [9] -0.016 | [10] -0.004 | [11] 0.046 | [12] 0.028 | [13] -0.106 | [14] 0.016 | [15] 0.055 | [16] 0.007 | [17] 0.018 | [18] 0.013 | [19] -0.025 | [20] -0.049

ARL1 (UniProt P40616)
inactive: [1] 0.006 | [2] -0.212 | [3] 0.037 | [4] -0.022 | [5] -0.03 | [6] -0.013 | [7] -0.018 | [8] -0.046 | [9] 0.025 | [10] 0.053 | [11] -0.029 | [12] -0.005 | [13] 0.027 | [14] -0.001 | [15] -0.017 | [16] 0.098 | [17] -0.026 | [18] 0.134 | [19] -0.021 | [20] -0.027

ARHGAP17 (UniProt Q68EM7)
inactive: [1] 0.016 | [2] 0.017 | [3] -0.025 | [4] 0.022 | [5] 0.016 | [6] 0.019 | [7] -0.02 | [8] 0.036 | [9] 0.002 | [10] -0.005 | [11] -0.009 | [12] 0.022 | [13] -0.015 | [14] -0.01 | [15] -0.053 | [16] 0.026 | [17] 0.012 | [18] -0.003 | [19] 0.019 | [20] 0.032

ARL2 (UniProt P36404)
inactive: [1] 0.004 | [2] 0.058 | [3] 0 | [4] -0.005 | [5] -0.007 | [6] -0.006 | [7] -0.035 | [8] 0.003 | [9] 0.005 | [10] 0.015 | [11] -0.002 | [12] 0.011 | [13] -0.015 | [14] -0.032 | [15] 0.001 | [16] -0.006 | [17] -0.023 | [18] -0.016 | [19] -0.013 | [20] 0.003

APTX (UniProt Q7Z2E3)
inactive: [1] 0.026 | [2] 0.143 | [3] 0.003 | [4] 0.065 | [5] -0.014 | [6] 0.053 | [7] -0.177 | [8] 0.052 | [9] 0.102 | [10] 0.035 | [11] -0.033 | [12] 0.1 | [13] -0.006 | [14] -0.068 | [15] -0.042 | [16] -0.015 | [17] -0.074 | [18] 0.011 | [19] 0.063 | [20] 0.088

ARL2BP (UniProt Q9Y2Y0)
inactive: [1] -0.032 | [2] -0.049 | [3] -0.028 | [4] 0.014 | [5] 0.056 | [6] -0.017 | [7] -0.021 | [8] 0.034 | [9] 0.04 | [10] 0.044 | [11] 0.002 | [12] -0.005 | [13] 0 | [14] -0.138 | [15] 0.04 | [16] -0.027 | [17] -0.053 | [18] 0.072 | [19] -0.003 | [20] 0.009

ARMT1 (UniProt Q9H993)
inactive: [1] 0 | [2] -0.018 | [3] 0 | [4] 0.014 | [5] 0.017 | [6] 0.005 | [7] -0.038 | [8] -0.021 | [9] 0.026 | [10] -0.013 | [11] -0.012 | [12] -0.003 | [13] 0.002 | [14] -0.01 | [15] 0 | [16] -0.06 | [17] 0.036 | [18] 0.013 | [19] 0.021 | [20] 0.016

ARFRP1 (UniProt Q13795)
inactive: [1] 0.047 | [2] 0.032 | [3] 0.049 | [4] -0.042 | [5] -0.04 | [6] -0.036 | [7] 0.001 | [8] -0.08 | [9] -0.24 | [10] 0.042 | [11] -0.013 | [12] -0.02 | [13] 0.027 | [14] -0.023 | [15] -0.042 | [16] 0.057 | [17] 0.051 | [18] -0.047 | [19] 0.031 | [20] 0.023

ARHGAP21 (UniProt Q5T5U3)
inactive: [1] -0.013 | [2] -0.182 | [3] -0.025 | [4] -0.098 | [5] -0.214 | [6] -0.018 | [7] -0.137 | [8] -0.118 | [9] -0.018 | [10] 0.056 | [11] 0.016 | [12] 0.047 | [13] 0.017 | [14] -0.047 | [15] 0.022 | [16] 0.077 | [17] -0.053 | [18] 0.062 | [19] 0.052 | [20] -0.015

ARPC4 isoform 3 (UniProt P59998)
inactive: [1] -0.025 | [2] -0.354 | [3] -0.021 | [4] 0.008 | [5] -0.013 | [6] -0.023 | [7] 0.052 | [8] -0.002 | [9] 0.012 | [10] -0.002 | [11] 0.005 | [12] 0.004 | [13] 0.021 | [14] 0.007 | [15] -0.022 | [16] -0.056 | [17] 0.004 | [18] 0.001 | [19] -0.022 | [20] 0.018

ARRB2 isoform 3 (UniProt P32121)
inactive: [1] -0.015 | [2] -0.04 | [3] -0.027 | [4] -0.002 | [5] 0.014 | [6] -0.005 | [7] -0.001 | [8] 0.029 | [9] 0.008 | [10] -0.006 | [11] -0.027 | [12] -0.007 | [13] 0 | [14] -0.006 | [15] -0.004 | [16] -0.048 | [17] -0.04 | [18] 0.024 | [19] 0.006 | [20] -0.013

ARHGAP5 (UniProt Q13017)
inactive: [1] 0.016 | [2] -0.027 | [3] -0.047 | [4] 0.045 | [5] -0.053 | [6] -0.032 | [7] -0.027 | [8] -0.018 | [9] 0.039 | [10] -0.03 | [11] 0.066 | [12] -0.024 | [13] 0.067 | [14] -0.04 | [15] -0.015 | [16] -0.007 | [17] -0.006 | [18] -0.003 | [19] 0.007 | [20] 0.016

ARFIP1 (UniProt P53367)
inactive: [1] -0.014 | [2] 0.116 | [3] 0.483 | [4] 0.043 | [5] -0.015 | [6] 0.014 | [7] -0.027 | [8] -0.06 | [9] -0.031 | [10] 0.001 | [11] 0.005 | [12] -0.029 | [13] 0.005 | [14] -0.023 | [15] -0.001 | [16] -0.016 | [17] 0.024 | [18] -0.009 | [19] 0.137 | [20] -0.024

APOBEC3C (UniProt Q9NRW3)
inactive: [1] 0.054 | [2] 0.058 | [3] -0.029 | [4] 0.066 | [5] 0.056 | [6] -0.017 | [7] 0.015 | [8] 0.031 | [9] -0.003 | [10] 0.038 | [11] -0.024 | [12] -0.047 | [13] 0.005 | [14] -0.051 | [15] -0.01 | [16] 0 | [17] -0.025 | [18] 0.046 | [19] 0.019 | [20] -0.01

Two consecutive records from above, for reference:
ARHGAP5 (UniProt Q13017)
inactive: [1] 0.016 | [2] -0.027 | [3] -0.047 | [4] 0.045 | [5] -0.053 | [6] -0.032 | [7] -0.027 | [8] -0.018 | [9] 0.039 | [10] -0.03 | [11] 0.066 | [12] -0.024 | [13] 0.067 | [14] -0.04 | [15] -0.015 | [16] -0.007 | [17] -0.006 | [18] -0.003 | [19] 0.007 | [20] 0.016

ARFIP1 (UniProt P53367)
inactive: [1] -0.014 | [2] 0.116 | [3] 0.483 | [4] 0.043 | [5] -0.015 | [6] 0.014 | [7] -0.027 | [8] -0.06 | [9] -0.031 | [10] 0.001 | [11] 0.005 | [12] -0.029 | [13] 0.005 | [14] -0.023 | [15] -0.001 | [16] -0.016 | [17] 0.024 | [18] -0.009 | [19] 0.137 | [20] -0.024

(continued)

ARSA (UniProt P15289)
inactive: [1] -0.133 | [2] 0.033 | [3] -0.002 | [4] 0.001 | [5] -0.033 | [6] 0.037 | [7] -0.039 | [8] -0.02 | [9] 0.006 | [10] -0.004 | [11] -0.112 | [12] 0.05 | [13] 0.094 | [14] 0 | [15] 0.035 | [16] 0.008 | [17] 0.007 | [18] 0.017 | [19] -0.103 | [20] -0.026
